Data reported in publication PMC8810813.
No constants are given. Whether binding was seen depends on the method and setting. Binding seen in cells or lysates may run through a third protein. Some results given as binding are weak or reduced against the parent protein; the word gives no strength.

T1: Myocardin (rat (endogenous in rat aortic SMCs)) (UniProt Q8R5I7)
T1 sequence: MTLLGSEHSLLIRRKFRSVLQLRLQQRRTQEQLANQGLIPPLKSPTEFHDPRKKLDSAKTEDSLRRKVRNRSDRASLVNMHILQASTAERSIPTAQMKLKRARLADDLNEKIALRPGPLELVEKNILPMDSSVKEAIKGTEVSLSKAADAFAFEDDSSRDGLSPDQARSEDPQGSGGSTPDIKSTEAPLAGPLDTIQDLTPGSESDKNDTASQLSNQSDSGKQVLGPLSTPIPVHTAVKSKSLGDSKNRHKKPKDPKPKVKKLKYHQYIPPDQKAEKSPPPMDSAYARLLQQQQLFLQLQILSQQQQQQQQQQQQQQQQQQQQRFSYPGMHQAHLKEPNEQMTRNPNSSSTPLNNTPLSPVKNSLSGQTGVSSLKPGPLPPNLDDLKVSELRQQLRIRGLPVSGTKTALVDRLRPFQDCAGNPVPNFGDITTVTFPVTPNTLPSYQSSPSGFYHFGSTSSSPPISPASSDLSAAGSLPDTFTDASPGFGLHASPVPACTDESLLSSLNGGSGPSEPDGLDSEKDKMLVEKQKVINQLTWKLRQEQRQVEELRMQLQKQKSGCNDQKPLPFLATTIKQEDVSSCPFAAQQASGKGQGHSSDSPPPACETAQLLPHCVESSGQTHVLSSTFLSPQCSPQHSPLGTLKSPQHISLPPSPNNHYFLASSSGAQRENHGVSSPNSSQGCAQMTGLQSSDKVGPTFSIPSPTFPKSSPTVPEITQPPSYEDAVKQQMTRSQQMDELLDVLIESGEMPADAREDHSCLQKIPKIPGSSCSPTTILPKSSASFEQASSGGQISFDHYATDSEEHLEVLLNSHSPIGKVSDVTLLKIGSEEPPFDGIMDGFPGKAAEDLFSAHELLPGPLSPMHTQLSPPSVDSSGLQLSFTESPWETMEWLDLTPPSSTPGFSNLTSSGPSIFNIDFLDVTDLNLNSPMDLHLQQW

T2: serum response factor (SRF) (rat (endogenous in rat aortic SMCs)) (UniProt D3ZHH8)
T2 sequence: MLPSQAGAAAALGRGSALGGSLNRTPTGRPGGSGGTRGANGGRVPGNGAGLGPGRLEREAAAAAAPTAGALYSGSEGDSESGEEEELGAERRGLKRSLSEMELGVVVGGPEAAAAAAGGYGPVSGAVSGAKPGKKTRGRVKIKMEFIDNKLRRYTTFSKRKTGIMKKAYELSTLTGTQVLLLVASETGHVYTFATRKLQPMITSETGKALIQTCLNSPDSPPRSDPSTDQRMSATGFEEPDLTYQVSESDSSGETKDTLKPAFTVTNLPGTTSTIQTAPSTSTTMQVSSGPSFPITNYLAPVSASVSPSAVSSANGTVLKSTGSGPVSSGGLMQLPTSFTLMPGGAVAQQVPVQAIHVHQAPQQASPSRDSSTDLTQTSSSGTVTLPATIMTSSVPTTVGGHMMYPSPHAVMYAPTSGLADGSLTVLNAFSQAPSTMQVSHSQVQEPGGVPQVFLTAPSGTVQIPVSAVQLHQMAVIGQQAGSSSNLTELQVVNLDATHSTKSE

T3: endothelin receptor type B (EDNRB) (rat (endogenous in rat aortic SMCs)) (UniProt P21451)
T3 sequence: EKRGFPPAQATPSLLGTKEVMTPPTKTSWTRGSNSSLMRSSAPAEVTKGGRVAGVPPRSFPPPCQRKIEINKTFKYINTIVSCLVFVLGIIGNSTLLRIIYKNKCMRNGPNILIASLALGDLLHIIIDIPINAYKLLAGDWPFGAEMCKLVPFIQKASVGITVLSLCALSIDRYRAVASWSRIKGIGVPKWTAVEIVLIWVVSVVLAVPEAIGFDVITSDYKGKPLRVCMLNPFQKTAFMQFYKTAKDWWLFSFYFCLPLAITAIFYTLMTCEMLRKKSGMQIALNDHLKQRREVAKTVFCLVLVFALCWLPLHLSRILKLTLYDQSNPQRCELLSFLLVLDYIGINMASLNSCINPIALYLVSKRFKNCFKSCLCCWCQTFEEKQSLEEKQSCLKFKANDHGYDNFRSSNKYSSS

T4: serum response factor (SRF) (rat (endogenous in rat aortic SMCs)), D3ZHH8
T4 chain: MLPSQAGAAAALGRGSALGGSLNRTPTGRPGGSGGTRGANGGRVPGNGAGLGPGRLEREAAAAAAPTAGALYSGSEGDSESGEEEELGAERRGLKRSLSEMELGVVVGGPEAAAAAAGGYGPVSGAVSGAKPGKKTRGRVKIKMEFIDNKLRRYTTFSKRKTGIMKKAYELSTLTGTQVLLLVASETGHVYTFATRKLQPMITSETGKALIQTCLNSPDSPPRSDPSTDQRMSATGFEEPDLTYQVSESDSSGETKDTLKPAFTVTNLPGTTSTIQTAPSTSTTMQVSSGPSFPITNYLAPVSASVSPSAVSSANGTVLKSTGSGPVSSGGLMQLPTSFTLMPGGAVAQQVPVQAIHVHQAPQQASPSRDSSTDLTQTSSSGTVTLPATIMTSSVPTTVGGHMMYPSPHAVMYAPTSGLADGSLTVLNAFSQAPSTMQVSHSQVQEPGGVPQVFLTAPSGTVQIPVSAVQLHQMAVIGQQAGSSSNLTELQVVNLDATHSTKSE


Key:
Experiment in all cases: co-IP; pooled rat SMC lysate in RIPA buffer, precleared with anti-species-specific IgG beads; antibodies to EDNRB, EDNRA, Myocardin and SRF 1 h at 4°C, protein A/G agarose beads overnight at 4°C; western blotting
[1] = biological target: T1, Myocardin (rat (endogenous in rat aortic SMCs))
[2] = biological target: T2, serum response factor (SRF) (rat (endogenous in rat aortic SMCs))
[3] = biological target: T3, endothelin receptor type B (EDNRB) (rat (endogenous in rat aortic SMCs))
[4] = biological target: T4, serum response factor (SRF) (rat …); conditions: remark: other sources report otherwise

| Binder | binding [1] | binding [2] | binding [3] | binding [4] |
| --- | --- | --- | --- | --- |
| endothelin receptor type A (EDNRA) (receptor, UniProt P26684 21-426) DNAERYSANLSSHVEDFTPFPGTEFNFLGTTLQPPNLALPSNGSMHGYCPQQTKITTAFKYINTVISCTIFIVGMVGNATLLRIIYQNKCMRNGPNALIASLALGDLIYVVIDLPINVFKLLAGRWPFDHNDFGVFLCKLFPFLQKSSVGITVLNLCALSVDRYRAVASWSRVQGIGIPLITAIEIVSIWILSFILAIPEAIGFVMVPFEYKGEQHRTCMLNATTKFMEFYQDVKDWWLFGFYFCMPLVCTAIFYTLMTCEMLNRRNGSLRIALSEHLKQRREVAKTVFCLVVIFALCWFPLHLSRILKKTVYDEMDKNRCELLSFLLLMDYIGINLATMNSCINPIALYFVSKKFKNCFQSCLCCCCHQSKSLMTSVPMNGTSIQWKNQEQNHNTERSSHKDSMN | binds | binds | binds |  |
| Myocardin, Q8R5I7 1-938 (protein) MTLLGSEHSLLIRRKFRSVLQLRLQQRRTQEQLANQGLIPPLKSPTEFHDPRKKLDSAKTEDSLRRKVRNRSDRASLVNMHILQASTAERSIPTAQMKLKRARLADDLNEKIALRPGPLELVEKNILPMDSSVKEAIKGTEVSLSKAADAFAFEDDSSRDGLSPDQARSEDPQGSGGSTPDIKSTEAPLAGPLDTIQDLTPGSESDKNDTASQLSNQSDSGKQVLGPLSTPIPVHTAVKSKSLGDSKNRHKKPKDPKPKVKKLKYHQYIPPDQKAEKSPPPMDSAYARLLQQQQLFLQLQILSQQQQQQQQQQQQQQQQQQQQRFSYPGMHQAHLKEPNEQMTRNPNSSSTPLNNTPLSPVKNSLSGQTGVSSLKPGPLPPNLDDLKVSELRQQLRIRGLPVSGTKTALVDRLRPFQDCAGNPVPNFGDITTVTFPVTPNTLPSYQSSPSGFYHFGSTSSSPPISPASSDLSAAGSLPDTFTDASPGFGLHASPVPACTDESLLSSLNGGSGPSEPDGLDSEKDKMLVEKQKVINQLTWKLRQEQRQVEELRMQLQKQKSGCNDQKPLPFLATTIKQEDVSSCPFAAQQASGKGQGHSSDSPPPACETAQLLPHCVESSGQTHVLSSTFLSPQCSPQHSPLGTLKSPQHISLPPSPNNHYFLASSSGAQRENHGVSSPNSSQGCAQMTGLQSSDKVGPTFSIPSPTFPKSSPTVPEITQPPSYEDAVKQQMTRSQQMDELLDVLIESGEMPADAREDHSCLQKIPKIPGSSCSPTTILPKSSASFEQASSGGQISFDHYATDSEEHLEVLLNSHSPIGKVSDVTLLKIGSEEPPFDGIMDGFPGKAAEDLFSAHELLPGPLSPMHTQLSPPSVDSSGLQLSFTESPWETMEWLDLTPPSSTPGFSNLTSSGPSIFNIDFLDVTDLNLNSPMDLHLQQW |  |  |  | binds |
| endothelin receptor type B (EDNRB) (receptor, UniProt P21451 27-442) EKRGFPPAQATPSLLGTKEVMTPPTKTSWTRGSNSSLMRSSAPAEVTKGGRVAGVPPRSFPPPCQRKIEINKTFKYINTIVSCLVFVLGIIGNSTLLRIIYKNKCMRNGPNILIASLALGDLLHIIIDIPINAYKLLAGDWPFGAEMCKLVPFIQKASVGITVLSLCALSIDRYRAVASWSRIKGIGVPKWTAVEIVLIWVVSVVLAVPEAIGFDVITSDYKGKPLRVCMLNPFQKTAFMQFYKTAKDWWLFSFYFCLPLAITAIFYTLMTCEMLRKKSGMQIALNDHLKQRREVAKTVFCLVLVFALCWLPLHLSRILKLTLYDQSNPQRCELLSFLLVLDYIGINMASLNSCINPIALYLVSKRFKNCFKSCLCCWCQTFEEKQSLEEKQSCLKFKANDHGYDNFRSSNKYSSS | binds | binds |  |  |
